Data reported in publication PMC8176717.
Results are given in words; binding and its absence hold for the method and conditions named. Binding seen in cells or lysates may run through a third protein. Some results given as binding are weak or reduced against the parent protein; the word gives no strength.

Chains of the proteins cited; added tags and fusions are not shown.
UniProt P51809: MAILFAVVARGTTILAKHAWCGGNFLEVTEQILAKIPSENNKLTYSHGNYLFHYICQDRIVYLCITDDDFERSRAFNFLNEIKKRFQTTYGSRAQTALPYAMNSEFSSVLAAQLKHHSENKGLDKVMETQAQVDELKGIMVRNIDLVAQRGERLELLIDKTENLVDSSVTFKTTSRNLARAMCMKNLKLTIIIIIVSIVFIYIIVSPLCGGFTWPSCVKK

Target: vesicle associated membrane protein 7 (VAMP7) (human (endogenous in Huh7)) (UniProt P51809)
Experiment: co-IP; lysate of LINC00511-overexpressing Huh7 cells (lysed 48 h after transfection), anti-VAMP7 antibody or IgG, protein A/G-agarose beads, washed four times with lysis buffer; immunoblot for SNAP23

binding: binds
B1: synaptosome associated protein 23 (SNAP23) (protein, UniProt O00161 1-211)
chain: MDNLSSEEIQQRAHQITDESLESTRRILGLAIESQDAGIKTITMLDEQKEQLNRIEEGLDQINKDMRETEKTLTELNKCCGLCVCPCNRTKNFESGKAYKTTWGDGGENSPCNVVSKQPGPVTNGQLQQPTTGAASGGYIKRITNDAREDEMEENLTQVGSILGNLKDMALNIGNEIDAQNPQIKRITDKADTNRDRIDIANARAKKLIDS
